Measurements from paper PMC9912839.
No constants are given. Whether binding was seen depends on the method and setting. Binding seen in cells or lysates may run through a third protein. Some binding calls cover weakened binding; strength is not graded here.

Target: T1, endogenous caspase-11 of BMDMs (mouse (endogenous in BMDMs)) (UniProt P70343)
T1 sequence: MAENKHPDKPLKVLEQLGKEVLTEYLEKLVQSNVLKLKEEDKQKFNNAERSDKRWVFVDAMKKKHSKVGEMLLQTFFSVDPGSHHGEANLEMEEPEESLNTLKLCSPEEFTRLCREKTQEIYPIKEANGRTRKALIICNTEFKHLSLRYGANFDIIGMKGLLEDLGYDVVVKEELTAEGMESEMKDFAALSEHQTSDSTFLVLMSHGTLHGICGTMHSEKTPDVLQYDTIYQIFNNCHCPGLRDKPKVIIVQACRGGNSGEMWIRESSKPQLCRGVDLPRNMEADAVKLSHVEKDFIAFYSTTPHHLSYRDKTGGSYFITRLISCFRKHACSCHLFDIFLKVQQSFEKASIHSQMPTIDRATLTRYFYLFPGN
Experiment: co-IP; endogenous proteins; BMDMs stimulated for 6 h with or without LPS, whole cell lysates immunoprecipitated with caspase-11 antibody, blot with anti-S1P antibody

B1: endogenous pro-S1P of BMDMs (enzyme, UniProt Q9WTZ2 23-1052)
chain: DRLGTRALEKAPCPSCSHLTLKVEFSSTVVEYEYIVAFNGYFTAKARNSFISSALKSSEVENWRIIPRNNPSSDYPSDFEVIQIKEKQKAGLLTLEDHPNIKRVTPQRKVFRSLKFAESNPIVPCNETRWSQKWQSSRPLKRASLSLGSGFWHATGRHSSRRLLRAIPRQVAQTLQADVLWQMGYTGANVRVAVFDTGLSEKHPHFKNVKERTNWTNERTLDDGLGHGTFVAGVIASMRECQGFAPDAELHIFRVFTNNQVSYTSWFLDAFNYAILKKMDVLNLSIGGPDFMDHPFVDKVWELTANNVIMVSAIGNDGPLYGTLNNPADQMDVIGVGGIDFEDNIARFSSRGMTTWELPGGYGRVKPDIVTYGAGVRGSGVKGGCRALSGTSVASPVVAGAVTLLVSTVQKRELVNPASVKQALIASARRLPGVNMFEQGHGKLDLLRAYQILSSYKPQASLSPSYIDLTECPYMWPYCSQPIYYGGMPTIVNVTILNGMGVTGRIVDKPEWRPYLPQNGDNIEVAFSYSSVLWPWSGYLAISISVTKKAASWEGIAQGHIMITVASPAETELHSGAEHTSTVKLPIKVKIIPTPPRSKRVLWDQYHNLRYPPGYFPRDNLRMKNDPLDWNGDHVHTNFRDMYQHLRSMGYFVEVLGAPFTCFDATQYGTLLLVDSEEEYFPEEIAKLRRDVDNGLSLVIFSDWYNTSVMRKVKFYDENTRQWWMPDTGGANIPALNELLSVWNMGFSDGLYEGEFVLANHDMYYASGCSIAKFPEDGVVITQTFKDQGLEVLKQETAVVENVPILGLYQIPSEGGGRIVLYGDSNCLDDSHRQKDCFWLLDALLQYTSYGVTPPSLSHSGNRQRPPSGAGLAPPERMEGNHLHRYSKVLEAHLGDPKPRPLPACPHLSWAKPQPLNETAPSNLWKHQKLLSIDLDKVVLPNFRSNRPQVRPLSPGESGAWDIPGGIMPGRYNQEVGQTIPVFAFLGAMVALAFFVVQISKAKSRPKRRRPRAKRPQLAQQAHPARTPSV
binding: binds
